According to article PMC9799976:

T1: HA-tagged doublecortin (HA-DCX), bait of the pull-down (UniProt O43602)
T1 sequence: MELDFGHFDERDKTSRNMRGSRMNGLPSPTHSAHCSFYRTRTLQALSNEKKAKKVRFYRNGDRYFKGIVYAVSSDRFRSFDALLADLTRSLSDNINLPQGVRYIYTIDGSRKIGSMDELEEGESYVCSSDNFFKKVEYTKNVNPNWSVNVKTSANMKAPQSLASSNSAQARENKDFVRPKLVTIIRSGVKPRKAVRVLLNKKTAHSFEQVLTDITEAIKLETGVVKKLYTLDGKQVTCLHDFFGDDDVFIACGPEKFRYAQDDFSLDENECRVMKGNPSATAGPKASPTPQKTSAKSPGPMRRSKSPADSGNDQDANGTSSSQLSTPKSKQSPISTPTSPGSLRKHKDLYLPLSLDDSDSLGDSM

B1: Catenin alpha-2 (protein, UniProt Q61301 1-953)
chain: MTSATSPIILKWDPKSLEIRTLTVERLLEPLVTQVTTLVNTSNKGPSGKKKGRSKKAHVLAASVEQATQNFLEKGEQIAKESQDLKEELVAAVEDVRKQGETMRIASSEFADDPCSSVKRGTMVRAARALLSAVTRLLILADMADVMRLLSHLKIVEEALEAVKNATNEQDLANRFKEFGKEMVKLNYVAARRQQELKDPHCRDEMAAARGALKKNATMLYTASQAFLRHPDVAATRANRDYVFKQVQEAIAGISSAAQATSPTDEAKGHTGIGELAAALNEFDNKIILDPMTFSEARFRPSLEERLESIISGAALMADSSCTRDDRRERIVAECNAVRQALQDLLSEYMNNTGRKEKGDPLNIAIDKMTKKTRDLRRQLRKAVMDHISDSFLETNVPLLVLIEAAKSGNEKEVKEYAQVFREHANKLVEVANLACSISNNEEGVKLVRMAATQIDSLCPQVINAALTLAARPQSKVAQDNMDVFKDQWEKQVRVLTEAVDDITSVDDFLSVSENHILEDVNKCVIALQEGDVDTLDRTAGAIRGRAARVIHIINAEMENYEAGVYTEKVLEATKLLSETVMPRFAEQVEVAIEALSANVPQPFEENEFIDASRLVYDGVRDIRKAVLMIRTPEELEDDSDFEQEDYDVRSRTSVQTEDDQLIAGQSARAIMAQLPQEEKAKIAEQVEIFHQEKSKLDAEVAKWDDSGNDIIVLAKQMCMIMMEMTDFTRGKGPLKNTSDVINAAKKIAEAGSRMDKLARAVADQCPDSACKQDLLAYLQRIALYCHQLNICSKVKAEVQNLGGELIVSGTGVQSTFTTFYEVDCDVIDGGRASQLSTHLPTCAEGAPIGSGSSDSSMLDSATSLIQAAKNLMNAVVLTVKASYVASTKYQKVYGTAAVNSPVVSWKMKAPEKKPLVKREKPEEFQTRVRRGSQKKHISPVQALSEFKAMDSF
B2: MARCKS-related protein (protein, UniProt P28667 1-200)
chain: MGSQSSKAPRGDVTAEEAAGASPAKANGQENGHVRSNGDLTPKGEGESPPVNGTDEAAGATGDAIEPAPPSQEAEAKGEVAPKETPKKKKKFSFKKPFKLSGLSFKRNRKEGGGDSSASSPTEEEQEQGEMSACSDEGTAQEGKAAATPESQEPQAKGAEASAASKEGDTEEEAGPQAAEPSTPSGPESGPTPASAEQNE
B3: Tubulin alpha chain-like 3 (protein, UniProt Q3UX10 1-446)
chain: MRECLSIHIGQAGVQIGDACWELYCLEHGIQPDGFILDHQHDNLENPKVEHMNASLDTFFHETRAGKHVPRTLFMDLEPTVIDGIRVGRYHSLFHPEQLVNGKEDAANTYARGRYSVGSEVIELVLERIRKLAEQCSGLQGFLIYRSFGGGTGSGFTSLLMERLSVEYCKKIKLEFSVYPSPRISTAVVEPYNAILTTHSTIEYSDCAFMVDNEALYDICQHKLGIERPSYASINRLIAQVSSSITASLRFEGPLNVDLIEFQTNLVPYPRIHFPITALAPIISAEKAYQEQLSVSDVTASCFEVSNQLVKCDPRLGKYMACCLLYRGDVVPKDVNEAIAAMKSRTSVQFVDWCPTGFKVGINYQPPAVVPGGDLARVQRAVCMLSNTTAIVEAWARLDHKFDLMYAKKAFLHWYITEGMELGEFVEAREDLAALEKDYEEVGLSF

Each binder was assayed against T1, HA-tagged doublecortin (HA-DCX), bait of the pull-down (assay: affinity purification with mass spectrometry; HA-tagged DCX immobilised on anti-HA agarose beads, mixed with protein lysates from E18 mouse brains, 16 hr at 4°C, washed four times; HA as negative control; only the target purified).

binding, binds:
B1
B2
B3

These are yes or no findings as the source states them, for the method shown. In cells and extracts the contact can be indirect. These calls come from enrichment with a bait or labelling near it, and not all partners need be listed. Where a sequence is shown, tags or fusion partners need not be part of it.
